Data published in doi:10.1101/2020.06.18.159293.
Results are given in words; binding and its absence hold for the method and conditions named. For some of these results: Binding seen in cells or lysates may run through a third protein. Some results given as binding are weak or reduced against the parent protein; the word gives no strength.

By UniProt entry, the sequences of proteins in these tests, tags left out. Residues count along the entry.
UniProt Q96C45, whole entry: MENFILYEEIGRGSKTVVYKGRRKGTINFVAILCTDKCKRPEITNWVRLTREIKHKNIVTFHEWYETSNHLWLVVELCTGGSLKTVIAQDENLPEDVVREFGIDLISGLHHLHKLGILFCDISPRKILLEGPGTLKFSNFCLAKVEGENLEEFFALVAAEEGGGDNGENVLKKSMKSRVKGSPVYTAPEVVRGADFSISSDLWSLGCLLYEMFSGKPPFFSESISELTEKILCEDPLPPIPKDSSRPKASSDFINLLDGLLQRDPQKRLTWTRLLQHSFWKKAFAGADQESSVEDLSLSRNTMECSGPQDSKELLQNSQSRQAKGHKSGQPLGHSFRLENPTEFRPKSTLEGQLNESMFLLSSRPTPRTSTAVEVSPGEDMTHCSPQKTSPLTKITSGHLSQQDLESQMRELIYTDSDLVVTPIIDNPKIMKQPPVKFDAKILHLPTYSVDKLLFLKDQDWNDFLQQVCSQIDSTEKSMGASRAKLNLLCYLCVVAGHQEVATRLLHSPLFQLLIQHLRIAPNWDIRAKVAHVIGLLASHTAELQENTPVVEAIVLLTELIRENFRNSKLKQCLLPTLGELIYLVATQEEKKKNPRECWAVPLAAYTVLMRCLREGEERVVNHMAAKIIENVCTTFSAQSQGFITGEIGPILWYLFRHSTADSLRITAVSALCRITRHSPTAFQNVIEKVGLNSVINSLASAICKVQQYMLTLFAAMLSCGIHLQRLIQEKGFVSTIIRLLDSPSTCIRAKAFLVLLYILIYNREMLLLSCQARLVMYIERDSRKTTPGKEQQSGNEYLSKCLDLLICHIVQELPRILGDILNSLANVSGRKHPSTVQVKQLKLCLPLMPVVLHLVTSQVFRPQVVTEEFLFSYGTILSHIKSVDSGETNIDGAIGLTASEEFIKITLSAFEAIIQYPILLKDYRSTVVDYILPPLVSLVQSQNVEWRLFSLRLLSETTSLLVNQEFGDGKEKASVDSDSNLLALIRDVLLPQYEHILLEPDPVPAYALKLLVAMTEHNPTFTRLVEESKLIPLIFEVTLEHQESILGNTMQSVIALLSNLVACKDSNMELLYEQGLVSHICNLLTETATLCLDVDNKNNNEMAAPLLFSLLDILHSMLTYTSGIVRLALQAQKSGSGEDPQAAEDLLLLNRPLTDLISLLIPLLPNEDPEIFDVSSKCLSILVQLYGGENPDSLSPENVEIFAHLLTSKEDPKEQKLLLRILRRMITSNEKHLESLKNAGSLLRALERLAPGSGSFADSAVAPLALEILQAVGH
UniProt Q96C45, 1-288: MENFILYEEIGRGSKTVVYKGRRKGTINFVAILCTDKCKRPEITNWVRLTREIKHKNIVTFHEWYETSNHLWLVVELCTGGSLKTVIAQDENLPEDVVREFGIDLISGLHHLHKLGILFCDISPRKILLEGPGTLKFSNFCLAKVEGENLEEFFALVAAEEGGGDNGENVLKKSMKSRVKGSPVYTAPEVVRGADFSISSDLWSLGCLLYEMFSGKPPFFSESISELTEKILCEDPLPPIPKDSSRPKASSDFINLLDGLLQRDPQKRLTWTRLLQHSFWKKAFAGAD
UniProt O75116, whole entry: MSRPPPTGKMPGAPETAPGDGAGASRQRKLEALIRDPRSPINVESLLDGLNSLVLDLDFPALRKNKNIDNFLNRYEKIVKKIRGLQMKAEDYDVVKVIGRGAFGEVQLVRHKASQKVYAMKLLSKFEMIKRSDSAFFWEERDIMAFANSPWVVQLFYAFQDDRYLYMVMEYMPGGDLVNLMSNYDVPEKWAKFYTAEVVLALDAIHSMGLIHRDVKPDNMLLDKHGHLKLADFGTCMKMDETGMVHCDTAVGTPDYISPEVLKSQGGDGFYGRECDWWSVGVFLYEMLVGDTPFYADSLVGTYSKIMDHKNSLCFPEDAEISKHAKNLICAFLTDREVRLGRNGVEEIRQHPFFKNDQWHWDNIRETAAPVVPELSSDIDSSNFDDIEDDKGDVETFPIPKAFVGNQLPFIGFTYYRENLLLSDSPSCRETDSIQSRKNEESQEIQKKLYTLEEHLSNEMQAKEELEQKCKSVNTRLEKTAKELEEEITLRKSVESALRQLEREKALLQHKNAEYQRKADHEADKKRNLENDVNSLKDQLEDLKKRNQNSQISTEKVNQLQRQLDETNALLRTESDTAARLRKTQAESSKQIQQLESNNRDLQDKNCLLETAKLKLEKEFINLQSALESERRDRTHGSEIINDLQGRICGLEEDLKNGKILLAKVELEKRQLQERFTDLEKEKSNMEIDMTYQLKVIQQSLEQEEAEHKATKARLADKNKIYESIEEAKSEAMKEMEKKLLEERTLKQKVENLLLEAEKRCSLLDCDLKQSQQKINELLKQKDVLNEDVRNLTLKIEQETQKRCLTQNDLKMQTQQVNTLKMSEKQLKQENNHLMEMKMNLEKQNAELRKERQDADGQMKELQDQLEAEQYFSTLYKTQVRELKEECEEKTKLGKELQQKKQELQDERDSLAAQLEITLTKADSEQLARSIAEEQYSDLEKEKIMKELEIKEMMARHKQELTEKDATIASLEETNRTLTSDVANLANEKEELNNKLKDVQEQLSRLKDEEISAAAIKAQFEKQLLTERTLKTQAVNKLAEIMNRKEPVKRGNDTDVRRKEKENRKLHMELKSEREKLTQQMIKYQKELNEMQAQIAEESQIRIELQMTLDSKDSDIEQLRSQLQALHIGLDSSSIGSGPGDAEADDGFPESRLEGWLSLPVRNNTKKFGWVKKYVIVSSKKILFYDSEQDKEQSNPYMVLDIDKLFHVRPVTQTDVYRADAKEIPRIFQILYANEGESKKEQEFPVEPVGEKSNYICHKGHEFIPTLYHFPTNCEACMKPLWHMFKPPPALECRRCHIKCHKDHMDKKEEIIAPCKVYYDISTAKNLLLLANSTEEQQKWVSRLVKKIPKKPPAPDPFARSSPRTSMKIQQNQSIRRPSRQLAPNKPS
UniProt Q5T5Y3, whole entry: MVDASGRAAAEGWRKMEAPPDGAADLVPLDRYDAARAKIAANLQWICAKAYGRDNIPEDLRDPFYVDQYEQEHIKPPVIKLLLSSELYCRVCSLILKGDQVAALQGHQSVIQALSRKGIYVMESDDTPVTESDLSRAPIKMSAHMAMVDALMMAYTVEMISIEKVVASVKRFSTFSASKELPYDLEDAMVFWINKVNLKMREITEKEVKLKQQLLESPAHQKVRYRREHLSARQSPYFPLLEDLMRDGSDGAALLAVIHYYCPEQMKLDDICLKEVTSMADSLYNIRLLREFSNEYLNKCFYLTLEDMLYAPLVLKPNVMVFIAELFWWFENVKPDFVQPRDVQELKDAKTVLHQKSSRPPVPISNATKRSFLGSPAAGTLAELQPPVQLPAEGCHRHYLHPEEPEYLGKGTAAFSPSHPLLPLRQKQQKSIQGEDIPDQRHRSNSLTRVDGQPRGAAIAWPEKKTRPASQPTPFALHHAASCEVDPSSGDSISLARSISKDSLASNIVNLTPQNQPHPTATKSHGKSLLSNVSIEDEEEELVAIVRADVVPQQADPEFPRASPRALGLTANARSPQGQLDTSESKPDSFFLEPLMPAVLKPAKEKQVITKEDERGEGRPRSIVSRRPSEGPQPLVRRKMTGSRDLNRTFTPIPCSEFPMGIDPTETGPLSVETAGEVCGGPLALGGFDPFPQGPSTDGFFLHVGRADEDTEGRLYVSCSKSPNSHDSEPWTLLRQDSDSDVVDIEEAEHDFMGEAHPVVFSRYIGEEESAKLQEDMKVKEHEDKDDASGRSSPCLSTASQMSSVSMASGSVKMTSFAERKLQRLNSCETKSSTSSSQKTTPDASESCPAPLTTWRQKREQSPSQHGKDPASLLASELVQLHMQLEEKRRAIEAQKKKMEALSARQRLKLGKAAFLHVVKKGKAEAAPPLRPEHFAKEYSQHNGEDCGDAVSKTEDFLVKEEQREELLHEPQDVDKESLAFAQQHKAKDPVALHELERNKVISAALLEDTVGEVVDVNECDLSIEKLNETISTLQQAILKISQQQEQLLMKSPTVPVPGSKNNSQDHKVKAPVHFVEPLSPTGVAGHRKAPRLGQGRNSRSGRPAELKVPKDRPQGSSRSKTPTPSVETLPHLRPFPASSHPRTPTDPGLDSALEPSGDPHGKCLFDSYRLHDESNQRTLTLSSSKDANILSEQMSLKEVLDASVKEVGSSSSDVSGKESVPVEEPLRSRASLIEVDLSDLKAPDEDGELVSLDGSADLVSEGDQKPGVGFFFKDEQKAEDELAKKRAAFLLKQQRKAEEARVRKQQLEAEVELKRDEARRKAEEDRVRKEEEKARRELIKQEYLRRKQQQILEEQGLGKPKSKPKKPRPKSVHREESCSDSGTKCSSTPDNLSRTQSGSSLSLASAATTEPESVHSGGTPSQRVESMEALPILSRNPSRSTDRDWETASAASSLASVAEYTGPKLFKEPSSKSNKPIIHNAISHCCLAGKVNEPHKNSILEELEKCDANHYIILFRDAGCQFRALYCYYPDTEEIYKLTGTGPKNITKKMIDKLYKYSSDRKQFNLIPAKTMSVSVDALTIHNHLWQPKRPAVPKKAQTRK

B1: PTPN14 (protein tyrosine phosphatase, non-receptor type 14) (protein, UniProt Q15678 1-1187)
chain: MPFGLKLRRTRRYNVLSKNCFVTRIRLLDSNVIECTLSVESTGQECLEAVAQRLELRETHYFGLWFLSKSQQARWVELEKPLKKHLDKFANEPLLFFGVMFYVPNVSWLQQEATRYQYYLQVKKDVLEGRLRCTLDQVIRLAGLAVQADFGDYNQFDSQDFLREYVLFPMDLALEEAVLEELTQKVAQEHKAHSGILPAEAELMYINEVERLDGFGQEIFPVKDNHGNCVHLGIFFMGIFVRNRIGRQAVIYRWNDMGNITHNKSTILVELINKEETALFHTDDIENAKYISRLFATRHKFYKQNKICTEQSNSPPPIRRQPTWSRSSLPRQQPYILPPVHVQCGEHYSETHTSQDSIFHGNEEALYCNSHNSLDLNYLNGTVTNGSVCSVHSVNSLNCSQSFIQASPVSSNLSIPGSDIMRADYIPSHRHSAIIVPSYRPTPDYETVMRQMKRGILHTDSQSQSLRNLNIINTHAYNQPEDLVYSQPEMRERHPYTVPYGPQGVYSNKLVSPSDQRNPKNNVVPSKPGASAISHTVSTPELANMQLQGSHNYSTAHMLKNYLFRPPPPYPRPRPATSTPDLASHRHKYVSGSSPDLVTRKVQLSVKTFQEDSSPVVHQSLQEVSEPLTATKHHGTVNKRHSLEVMNSMVRGMEAMTLKSLHLPMARRNTLREQGPPEEGSGSHEVPQLPQYHHKKTFSDATMLIHSSESEEEEEEAPESVPQIPMLREKMEYSAQLQAALARIPNKPPPEYPGPRKSVSNGALRQDQASLPPAMARARVLRHGPAKAISMSRTDPPAVNGASLGPSISEPDLTSVKERVKKEPVKERPVSEMFSLEDSIIEREMMIRNLEKQKMAGLEAQKRPLMLAALNGLSVARVSGREENRVDATRVPMDERFRTLKKKLEEGMVFTEYEQIPKKKANGIFSTAALPENAERSRIREVVPYEENRVELIPTKENNTGYINASHIKVVVGGAEWHYIATQGPLPHTCHDFWQMVWEQGVNVIAMVTAEEEGGRTKSHRYWPKLGSKHSSATYGKFKVTTKFRTDSVCYATTGLKVKHLLSGQERTVWHLQYTDWPDHGCPEDVQGFLSYLEEIQSVRRHTNSMLEGTKNRHPPIVVHCSAGVGRTGVLILSELMIYCLEHNEKVEVPMMLRLLREQRMFMIQTIAQYKFVYQVLIQFLQNSRLI

Legend:
[1] = biological target: C-terminally FLAG-tagged full-length ULK4 (ULK4-BirA*Flag) (human) (UniProt Q96C45); experiment: co-IP
[2] = biological target: N-terminally FLAG-tagged ULK4 (FlagBirA*-ULK4) (human) (UniProt Q96C45); experiment: co-IP
[3] = biological target: C-terminally FLAG-tagged full-length ULK4 (ULK4-BirA*Flag) (human) (UniProt Q96C45); experiment: co-sedimentation
[4] = biological target: ULK4 pseudokinase domain residues 1-288 (ULK4PD) (human) (UniProt Q96C45); experiment: SEC

| Molecule | binding [1] | binding [2] | binding [3] | binding [4] |
| --- | --- | --- | --- | --- |
| Rho associated coiled-coil containing protein kinase 2 (ROCK2) (from UniProt O75116 1-1388) | binds | binds | binds |  |
| ULK4 pseudokinase domain residues 1-288 (ULK4PD) (from UniProt Q96C45 1-288) (domain or fragment) |  |  |  | no binding |
| calmodulin regulated spectrin associated protein 1 (CAMSAP1) (from UniProt Q5T5Y3 1-1602) | binds | binds | binds |  |
| B1 | binds | binds | binds |  |
